Assay results from paper PMC5978872.

Molecular target: T1, MPN domain of CSN5B fused to a YFP fragment for BiFC in tobacco leaves (Arabidopsis) (UniProt Q9FVU9)
T1 sequence: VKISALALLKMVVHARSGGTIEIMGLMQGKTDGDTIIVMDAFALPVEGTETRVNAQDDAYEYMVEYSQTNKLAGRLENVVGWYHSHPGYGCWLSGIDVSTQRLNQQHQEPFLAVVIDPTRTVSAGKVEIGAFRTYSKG
Assay: split reporter; BiFC with cYFP and nYFP fusions transiently co-expressed in tobacco leaves; YFP seen by confocal laser scanning microscopy 48 h after infiltration

For “VTC1 fused to a YFP fragment for BiFC in tobacco leaves (Arabidopsis) (enzyme)”, the binding was “binds”.

No constants are given. Whether binding was seen depends on the method and setting. In cells and extracts the contact can be indirect. A result given as binding can be weak or reduced; the word gives no strength. Where a sequence is shown, tags or fusion partners need not be part of it.
